Source: PubChem BioAssay AID2685 (National Center for Advancing Translational Sciences (NCATS), 2010)
The other results are listed elsewhere or left out. The main result of the screen is listed elsewhere. These columns were measured beside it and carry no call. Compounds called inactive in the main read-out are mostly missing here. Words in brackets tell the shape of the fitted curve; partial curves, single points and poor fits give uncertain potencies.

Experiment: qHTS Assay for Lipid Storage Modulators in Drosophila S3 Cells;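 for cell number change: cells counted by Cell Tracker Red CMTPX staining in the red channel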
Details: BODIPY lipid droplet fluorescence, 18-24 h; for cell number change: measured here: cell count max response, cells fed with added oleic acid
Method in brief: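 Laser-scanning cytometry quantifies lipid droplet accumulation (500–530 nm total intensity; droplet/cell object ratio) in oleic acid-fed (400 uM added) Drosophila S3 cells treated with a concentration series. 20 uM Triacsin C defined 100% inhibition.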

[1] = measured here: cell number channel AC50, cells fed with added oleic acid
[2] = measured here: lipid fluorescence (Fed channel) AC50, cells fed with added oleic acid

Structure (SMILES) | cell number change | AC50 [1] | AC50 [2]
COc1cc(Cl)c(C)cc1NC(=O)COC(=O)c1cnc(C)cn1 | 95.3% | 16.4 µM [rising, partial curve] | 6.51 µM [rising, single point]
Cc1cccc(OCCSc2cc(C)nc(N)n2)c1 | -44.2% | 18.4 µM [falling, single point] | 29.1 µM [falling, single point]
CCN(CC)c1ccc(/C=N/N2C(C)CCCC2C)c(O)c1 (stereo unspecified) | 20.9% | – | –
CCc1ccc(/C=N/NC(=O)c2cc(C)on2)s1 | -7.03% | – | –
Cc1ccc(C(=O)OCC(=O)Nc2ncc(C(F)(F)F)cc2Cl)cc1NC(=O)c1ccco1 | 131% | 1.84 µM [rising, full curve] | 20.6 µM [rising, partial curve]
CN(C)S(=O)(=O)c1ccc(NC(=O)CCNC(=O)c2ccco2)cc1 | 8.7% | – | 29.1 µM [falling, partial curve]
CCOC(=O)N1CCN(S(=O)(=O)N2CCCC(C(=O)NCCCN3CCCCC3CC)C2)CC1 (stereo unspecified) | -19.1% | 6.51 µM [falling, partial curve, poor fit] | –
CCOc1ccc(C(=O)Nc2nnc(SCC(=O)NCC3CCCO3)s2)cc1 (stereo unspecified) | -34.1% | 32.6 µM [falling, single point] | 0.0231 µM [falling, full curve]
COc1ccc(NC(=O)CCC(=O)NCCO)cc1 | -16.7% | – | 29.1 µM [falling, single point]
COc1ccc(CNC(=O)CC(C)CC2=NS(=O)(=O)c3ccccc3N2)cc1 (stereo unspecified) | 8.98% | – | 1.64 µM [rising, full curve, poor fit]
O=C(/C=C/c1ccc(Cl)cc1)NCCc1ccccc1 | 6.26% | 0.366 µM [falling, partial curve, poor fit] | 0.58 µM [falling, partial curve]
Cn1c(C(=O)N2CCCC(C(=O)O)C2)cc2sccc21 (stereo unspecified) | 2.6% | 0.0259 µM [falling, full curve, poor fit] | –
CCOc1cc(/C=N\NC(=O)c2ccc(NC(=O)CC)cc2)ccc1OC(=O)c1ccccc1 | -20.7% | 0.651 µM [falling, full curve, poor fit] | 23.1 µM [falling, single point]
O=S(=O)(NC1CCCCC1Oc1ccccc1)c1ccc(Cl)cc1 (stereo unspecified) | -19.7% | – | 0.13 µM [falling, full curve]
COc1ccc(CCn2ccc(O)c(Cc3c(F)cccc3Cl)c2=O)cc1OC | -65.2% | 7.08 µM [falling, partial curve] | 2.82 µM [falling, full curve]
NC(=O)c1ccc(NC(=O)COC(=O)CCCOc2ccccc2)cc1 | 14.5% | – | –
CCOc1ccc(Cl)cc1S(=O)(=O)N1CCC(C(=O)NCc2ccccn2)CC1 | 11.3% | – | 6.51 µM [rising, single point]
O=C(Nc1ccc(Cl)cc1)[C@@H]1[C@@H]2C(=O)N(c3ccc(Cl)cc3)C(=O)[C@@H]2[C@H]2C=CC=NN21 | – | 0.651 µM [rising, partial curve] | 1.84 µM [rising, partial curve]

Whole records from above.
COc1ccc(CCn2ccc(O)c(Cc3c(F)cccc3Cl)c2=O)cc1OC is listed as cell number change: -65.2%; AC50 [1]: 7.08 µM [falling, partial curve]; AC50 [2]: 2.82 µM [falling, full curve]
Cc1ccc(C(=O)OCC(=O)Nc2ncc(C(F)(F)F)cc2Cl)cc1NC(=O)c1ccco1 is listed as cell number change: 131%; AC50 [1]: 1.84 µM [rising, full curve]; AC50 [2]: 20.6 µM [rising, partial curve]

More results follow.

Structure (SMILES) | cell number change | AC50 [1] | AC50 [2]
CSc1cccc(NC(=O)C2CCN(S(=O)(=O)c3cnc[nH]3)CC2)c1 | 7.96% | – | –
CC(=O)c1cccc(NC(=O)c2sc3nc4n(c(=O)c3c2C)CCCCC4)c1 | -43.6% | 20.6 µM [falling, single point] | 4.11 µM [falling, full curve]
O=C(CS(=O)CC(=O)N(CC(=O)NC1CCCC1)C1CCCC1)Nc1ccc(F)cc1 (stereo unspecified) | 3.37% | – | –
Cc1ccc(-c2noc(CN(C)C(=O)Nc3ccc(F)cc3)n2)cc1 | -9.23% | – | 23.1 µM [falling, single point]
C[C@@]12C(=O)Nc3cc(Cl)ccc3C(=O)N1[C@H]1c3cc(Br)ccc3OC[C@@H]1[C@@H]2c1ccccc1 | 7.66% | – | 2.91 µM [rising, partial curve]
COc1ccccc1CNC(=O)c1cccc(S(=O)(=O)N(C)c2ccccc2)c1 | -7.77% | – | –
COc1ccc(-c2nc3c(n2O)CCc2c-3no[n+]2[O-])cc1 | -1.22% | – | 0.291 µM [falling, partial curve, poor fit]
Cc1cccc(N2CCN(Cc3nc(-c4cccc(Cl)c4)oc3C)CC2)n1 | -37.7% | 13 µM [falling, partial curve] | 20.6 µM [falling, single point]
O=C(CSc1ccc2ccccc2n1)N1CCC(c2noc3ccc(F)cc23)CC1 | -33.3% | 32.6 µM [falling, single point] | 29.1 µM [falling, single point]
COc1ccc(CCN2CC(C(=O)NCC(=O)Nc3ccc(F)c(F)c3)CC2=O)cc1OC (stereo unspecified) | -11% | – | 0.092 µM [falling, full curve, poor fit]
CCOc1cc(-c2noc(CCC(=O)N3CCOCC3)n2)ccc1OC | 11.6% | – | 29.1 µM [rising, single point]
Cc1cc2ncc(S(=O)(=O)c3ccccc3)c(N)n2n1 | 3.13% | – | –
O=C(COc1ccc2ccccc2c1)Nc1ccc(Br)cc1C(=O)O | 18.5% | – | 0.82 µM [rising, full curve, poor fit]
O=C(NCCOc1ccccc1)c1ccccc1SCC(=O)N1CCCC1 | -1.18% | – | 2.91 µM [rising, single point]
O=C(NCCCCNC(=O)c1cccnc1Cl)c1cccnc1Cl | 26.5% | – | 1.3 µM [falling, full curve]
COC(=O)C1=CN(c2ccc(F)cc2)C=C(C(=O)OC)C1c1cccc(Br)c1 | 53.7% | 29.1 µM [rising, single point] | –
O=C(O)CC/C(=N\Nc1ccc([N+](=O)[O-])cc1)c1ccccc1 | -58.1% | 29.1 µM [falling, single point] | 29.1 µM [falling, single point]
COc1ccc(C(=O)Nc2cccc(OC)c2)cc1 | -0.382% | – | 20.6 µM [falling, partial curve, poor fit]
